Measured values: patent US20230213527A1, “COMPOSITIONS AND METHODS FOR POLYPEPTIDE ANALYSIS” (Quantum-Si Incorporated, priority 2021, published 2023)
Results are given in words; binding and its absence hold for the method and conditions named. Some binding calls cover weakened binding; strength is not graded here.

Assays:
Test in all cases: bulk characterization by fluorescence polarization (FIG. 7C)
[1] = target: T1, labeled peptide with N-terminal isoleucine (X…-FITC, SEQ ID NO: 833, X = I)
T1 sequence (peptide, C-terminal FITC label): IAKLDEESILKQK

[2] = target: T2, labeled peptide with N-terminal leucine (X…-FITC, SEQ ID NO: 833, X = L)
T2 sequence (peptide, C-terminal FITC label): LAKLDEESILKQK

[3] = target: T3, labeled peptide with N-terminal valine (X…-FITC, SEQ ID NO: 833, X = V)
T3 sequence (peptide, C-terminal FITC label): VAKLDEESILKQK

binding [1]: binds
binding [2]: binds
binding [3]: binds
B1: PS961 (designed binder)
chain: MPTAASATESAIEDTPAPARPEVDGRTKPKRQPRYHVVLWDDDDHTYQYVVVMLRSLFGHPPSRGYRMAKEMDTQGRVIVLTTTREHAELKRDQIHAFGRDRLLARSKGSMKASIEAEE
